{
  "source": "the supplement of paper PMC4604168 (melanoma cell lines)",
  "note": "This is one part of the list. Many values rest on one well or one pass, so single values are uncertain.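 Imaging used 1,536-well plates; nuclei positive for cleaved PARP by antibody were divided by total DNA-stained nuclei to yield the apoptosis fraction. Doses for screening kept most cells viable, and cell lines differ markedly in resting and induced cleaved-PARP levels.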",
  "data": [
    {"tested_on": "C32", "assay": "cleaved PARP positive nuclei fraction relative to DMSO control; melanoma cells; higher = more apoptosis", "details": "library dose: low library concentration; 72 h", "units": {"cleaved PARP positive nuclei fraction": "%"}, "values": [
      {"compound": "CCN(CC)CCNC(=O)c1c(C)[nH]c(/C=C2\\C(=O)Nc3ccc(F)cc32)c1C", "note": "[sunitinib] + c1cc(-c2cnn3cc(-c4ccc(OCCN5CCCCC5)cc4)cnc23)ccn1 [Dorsomorphin] (first compound 0.4 µM, partner dose 0.4 µM)", "cleaved PARP positive nuclei fraction": 88.6},
      {"compound": "C[C@]1(O)C[C@@H](c2nc(-c3ccc4ccc(-c5ccccc5)nc4c3)c3c(N)nccn32)C1", "note": "+ Oc1nc(-c2ccc(C(F)(F)F)cc2)nc2c1CSCC2 [XAV939] (first compound 0.4 µM, partner dose 2 µM)", "cleaved PARP positive nuclei fraction": 109},
      {"compound": "C[C@@H](N)c1ccc(C(=O)Nc2ccnc3[nH]ccc23)cc1", "note": "+ COc1ccc(-c2ccc3c(N4CCOCC4)nc(N4C[C@@H](C)O[C@@H](C)C4)nc3n2)cc1CO [KU0063794] (first compound 0.4 µM, partner dose 0.02 µM)", "cleaved PARP positive nuclei fraction": 249},
      {"compound": "CCCCCCCCc1ccc(CCC(N)(CO)CO)cc1", "note": "[fingolimod] + O=C(O)C(=O)Nc1sc2c(c1C(=O)O)CCNC2 [TCS401] (first compound 2 µM, partner dose 1.66667 µM)", "cleaved PARP positive nuclei fraction": 64.5},
      {"compound": "CCN(CC)CCNC(=O)c1c(C)[nH]c(/C=C2\\C(=O)Nc3ccc(F)cc32)c1C", "note": "[sunitinib] + Cn1cc(/C=C2\\C(=O)Nc3cccnc32)c2ccccc21 [GW441756] (first compound 0.4 µM, partner dose 0.4 µM)", "cleaved PARP positive nuclei fraction": 84.5},
      {"compound": "CC1(C)CCC(c2ccc(Cl)cc2)=C(CN2CCN(c3ccc(C(=O)NS(=O)(=O)c4ccc(N[C@H](CCN5CCOCC5)CSc5ccccc5)c(S(=O)(=O)C(F)(F)F)c4)cc3)CC2)C1", "note": "+ c1cc(-c2cnn3cc(-c4ccc(OCCN5CCCCC5)cc4)cnc23)ccn1 [Dorsomorphin] (first compound 0.4 µM, partner dose 0.4 µM)", "cleaved PARP positive nuclei fraction": 371},
      {"compound": "C[C@@H](N)c1ccc(C(=O)Nc2ccnc3[nH]ccc23)cc1", "note": "+ COC(=O)c1sccc1S(=O)(=O)Nc1ccc(Nc2ccccc2)cc1OC [GSK0660] (first compound 0.4 µM, partner dose 1 µM)", "cleaved PARP positive nuclei fraction": 86.5},
      {"compound": "CCCCCCCCc1ccc(CCC(N)(CO)CO)cc1", "note": "[fingolimod] + COc1ccc(-c2ccc3c(N4CCOCC4)nc(N4C[C@@H](C)O[C@@H](C)C4)nc3n2)cc1CO [KU0063794] (first compound 2 µM, partner dose 0.02 µM)", "cleaved PARP positive nuclei fraction": 204},
      {"compound": "CCCCCCCCc1ccc(CCC(N)(CO)CO)cc1", "note": "[fingolimod] + N#Cc1c(O)c2c(-c3ccc(-c4ccccc4O)cc3)csc2[nH]c1=O [A769662] (first compound 2 µM, partner dose 2 µM)", "cleaved PARP positive nuclei fraction": 178}
    ]}
  ]
}
